Laboratory results taken from US20190112385A1 (NBE THERAPEUTICS, published 2019).
No constants are given. Whether binding was seen depends on the method and setting. Some entries that bind do so weakly or less than the wild type.

Chains of the proteins cited; added tags and fusions are not shown. Lines headed by an entry give the natural chain unless they say otherwise; changes in a name come on top. A line that says so, or that is headed by a name, gives the form on record, which may keep a tag or linker.
StrepII-tagged Mesothelin (human mesothelin isoform 2, NP_037536, with C-terminal strepII-tag) (Q13421, form named): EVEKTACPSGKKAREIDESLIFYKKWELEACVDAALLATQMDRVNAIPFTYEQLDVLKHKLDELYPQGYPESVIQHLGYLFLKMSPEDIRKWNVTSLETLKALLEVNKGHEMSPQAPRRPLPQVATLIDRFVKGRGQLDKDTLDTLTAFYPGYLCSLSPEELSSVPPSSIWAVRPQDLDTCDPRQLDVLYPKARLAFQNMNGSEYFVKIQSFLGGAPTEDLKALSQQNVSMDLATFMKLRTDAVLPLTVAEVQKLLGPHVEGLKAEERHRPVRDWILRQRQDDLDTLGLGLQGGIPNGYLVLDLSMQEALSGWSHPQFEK

How the values were obtained:
[1] = target: StrepII-tagged Mesothelin (human mesothelin isoform 2, NP_037536, with C-terminal strepII-tag) (human) (UniProt Q13421); assay: SPR isoaffinity plot (ka against kd); mAb from 293T supernatant captured by anti-human Fc-gamma IgG, Mesothelin-strep as analyte
[2] = target: StrepII-tagged Mesothelin (human mesothelin isoform 2, NP_037536, with C-terminal strepII-tag) (human) (UniProt Q13421); assay: ELISA of L11 clone supernatant on plates coated with a limiting concentration of Mesothelin, in parallel with a sandwich ELISA for IgG; values calculated from the MN standard curve [ctd) D]
[3] = target: StrepII-tagged Mesothelin (human mesothelin isoform 2, NP_037536, with C-terminal strepII-tag) (human) (UniProt Q13421); assay: SPR (Biacore T200), mAb from 293T supernatant captured by anti-human Fc-gamma antibody, Mesothelin in 1:2 dilutions from 10 nM [ctd]
[4] = target: StrepII-tagged Mesothelin (human mesothelin isoform 2, NP_037536, with C-terminal strepII-tag) (human) (UniProt Q13421); assay: SPR (Biacore T200), mAb from 293T supernatant captured by anti-human Fc-gamma antibody, Mesothelin in 1:2 dilutions from 10 nM
[5] = target: StrepII-tagged Mesothelin (human mesothelin isoform 2, NP_037536, with C-terminal strepII-tag) (human) (UniProt Q13421); assay: ELISA on plates coated with a limiting concentration of Mesothelin, in parallel with a sandwich ELISA for IgG; parental mAb MN as standard [ctd) D]
[6] = target: StrepII-tagged Mesothelin (human mesothelin isoform 2, NP_037536, with C-terminal strepII-tag) (human) (UniProt Q13421); assay: flow cytometry, surface-displayed IgG on L11 cells stained with strep-tagged antigen

| Binder | binding [1] | binding [2] | binding [3] | binding [4] | binding [5] | binding [6] |
| --- | --- | --- | --- | --- | --- | --- |
| huMN3-1 (antibody, V domains shown) VH: QVQLQQSGAELVKPGASMKLSCKASGYTFTSYWMHWVRQAPGQGLEWIGAIHPNSDNTIYYQKFKSRVTLTVDKSISTAYMQLSSLTSEDTAVYYCAIIITPVVPKFDYWGQGTTVTVSS VL: DIQMTQSPSFLSASVGDRVTITCRASHDVGTSLAWYQQKPGQAPKLLIYWASTLQTGVPSRFSGSGSGTEFTLTISSLQPEDFATYYCQQYSSYPLTFGPGTTVDMK | binds | binds | binds |  |  |  |
| huMN5-2 (antibody, V domains shown, No sheet says in words that huMN5a is huMN5-2) VH: QVQLQQSGAELVKPGASLKLSCKASGYTFTSYWMHWVRQAPGQGLEWIGAIHPNSDNTIYYQKFKSRFTITVDKSTSTAYMQLSSLTSEDTAVYYCAIIITPVVPKFDYWGQGTTVTVSS VL: DIVMTQSSSFMSASVGDRVSITCKASHDVGTSLAWYQQKPGQSPKLLIYWASTRQTGVPDRFSGSGSGTDFTLTISSVQSEDVATYFCQQYSSYPLTFGQGTKLEIK | binds |  | binds |  |  |  |

Now from value to binder:

| binding [1] | binding [2] | binding [3] | binding [4] | binding [5] | binding [6] | Binder |
| --- | --- | --- | --- | --- | --- | --- |
| binds |  |  | binds | binds | binds | parental anti-Mesothelin mouse mAb MN, produced as chimeric full-length IgG1 antibody with human constant regions (antibody, V domains shown, also called VH-MN (parental mouse); parental chimeric antibody) VH: QVQLQQPGAELVKPGASMKLSCKASGYTFTSYWMHWVKQRPGQGLEWIGMIHPNSDNTIYYEKFKSKATLTVDKSSSTAYMQLSSLTSEDSAVYYCAIIITPVVPKFDYWGQGTTLTVSS VL: DIVMTQSHQFMSTSVGDRVSVTCKASHDVGTSVAWYQQKPGQSPKLLIYWASTRHTGVPDRFTGSGSGTDFTLTISNVQSEDLADYFCQQYSSYPLTFGAGTKLELK |
| binds |  |  | binds |  |  | huMN5-3 (antibody, V domains shown, No sheet says in words that huMN5b is huMN5-3) VH: QVQLQQSGAELVKPGASLKLSCKASGYTFTSYWMHWVRQAPGQGLEWIGAIHPNSDNTIYYQKFKSRFTITVDKSTSTAYMQLSSLTSEDTAVYYCAIIITPVVPKFDYWGQGTTVTVSS VL: DIVMTQSPDSLAVSLGERATITCKSSHDVGTSLAWYQQKPGQPPKLLIYWASTRESGVPDRFSGSGSGTDFTLTISSLQAEDVAVYYCQQYSSYPLTFGQGTKLEIK |
